The values that follow come from publication doi:10.1101/2023.11.16.567405.

Experiment [1] has as its target T1, GFP-MamF fusion protein (Magnetospirillum gryphiswaldense MSR-1) (UniProt Q6NE74).
T1 sequence: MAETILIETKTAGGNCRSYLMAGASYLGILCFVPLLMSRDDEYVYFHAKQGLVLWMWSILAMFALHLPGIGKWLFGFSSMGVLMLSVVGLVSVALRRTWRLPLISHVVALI
Briefly: co-IP.

Experiment [2] has as its target T2, GFP-MmsF fusion protein (Magnetospirillum gryphiswaldense MSR-1) (UniProt A4U547).
T2 sequence: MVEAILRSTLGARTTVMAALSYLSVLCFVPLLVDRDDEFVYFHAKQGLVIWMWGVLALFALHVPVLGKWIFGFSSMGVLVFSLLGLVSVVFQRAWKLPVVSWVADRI
Briefly: co-IP.

These are yes or no findings as the source states them, for the method shown. Binding seen in cells or lysates may run through a third protein. Some entries that bind do so weakly or less than the wild type. Sequences can lack the tags named with a protein.

B1: MamJ, magnetosome membrane adaptor protein (protein, UniProt V6F519 1-466)
chain: MAKNRRDRGTDLPGDGDQKISTGPEIVSVTVHPSPNLAAAAKPVQGDIWASLLESSPWSANQGGLVETAQPPSAPIRSQDPVPVADLVNRWSQPIWRTAPLAGNAESSEEGVVAPSLTQSDSVLAVSDLVIDVQPETDAEVEVSIEPEPALVEPVIEIEAEAAEVEPEPAPVADLVNRWAQPIWRTAPLAGNAESSEEGVVAPSLTQSDSVLAVSDLVIDVQPEANAEVEVSIEPEPALVEPVIEIEAEAAEVEPEPAPVEPVIEIEAEAAEVEPEPAPVEPVIEIEAEAAEVEPEPAPVEPAIEIEAIRVELEPVLIDEVVELVTEFEYSQAESVASADLIANPAPAESSRLAELLDEAAAIAAPAVAVAVEATRQPNKITASVKKRAPVQEVPVEDLLGGIFGVAGSAVRGVFTIGGGFVDGVVKGGRLVGSNVVAGTRRLAQTIEVSCGSCSSPKCDAEDKNK
With B1, the results for the binding entry in experiment [1] and in experiment [2] were “no binding” and “binds weakly”, respectively.
